The list does not hold the whole screen: it gathers tests that were run many times, whatever their T/C, doses with no T/C, and many T/C values between a quarter and a half above the control. Further doses and runs are listed elsewhere. T/C is the treated group as % of the vehicle group. Some entries give survivors of the animals treated and no T/C: the source files T/C as zero there, which appears to mark a toxic dose or a test without result, not a measured value. Some survivor counts are full or nearly so, which does not show that the dose was tolerated: the source hardly ever lists a survival T/C far under the control, and the zero likely stands for such cases as well. Survivors were counted at the toxicity check, usually on the fifth day, unless a day is given; later deaths do not show. Schedule codes are those of the source, taken here to give the interval after Q, in days (D) or hours (H), and the number of doses after X. Some doses were run more than once; their values stand side by side, smallest first. Where survival is the endpoint, the PubChem record calls one and a half times the control and up active, and a quarter to a half above the control has no call in these data; cut-offs in other NCI protocols can differ. Some T/C values carry the count of animals alive at the toxicity check (mostly the fifth day); where none is given, no animal had died by that day.
System: B6C3F1 mice, B16 melanoma ip, median survival T/C
Experiment: NCI In Vivo Anticancer Drug Screen. Data for tumor model B16 Melanoma (intraperitoneal) in B6C3F1 mice
Details: T/C endpoint: median survival time, schedule: Q01DX009 (ip), higher T/C = longer survival
Outline: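 Values are T/C ratios: the measurement in treated animals divided by that in vehicle-treated controls, using survival or tumor size in mice carrying transplantable tumors.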

[1] = dose: 100.0 mg/kg/injection, vehicle: saline
[2] = dose: 200.0 mg/kg/injection, vehicle: saline
[3] = dose: 200.0 mg/kg/injection, vehicle: saline with Tween-80
[4] = dose: 400.0 mg/kg/injection, vehicle: saline with Tween-80
[5] = dose: 50.0 mg/kg/injection, vehicle: saline with Tween-80
[6] = dose: 100.0 mg/kg/injection, vehicle: saline with Tween-80

C/C=C1/C(=O)O[C@]23C=C[C@@H]4C(C(=O)OC)=CO[C@H](O[C@@H]12)[C@@H]43
survivor count (dose: 30.0 mg/kg/injection, vehicle: Klucel (hydroxypropylcellulose) (HPC)): 6 of 10

Nc1ncc(C2OC(CO)C(O)C2O)c(=O)[nH]1 (configuration not stated)
T/C (dose: 25.0 mg/kg/injection, vehicle: saline): 130 % of control
T/C (dose: 50.0 mg/kg/injection, vehicle: saline): 143 % of control
survivor count [1]: 8 of 10
survivor count [2]: 8 of 10 and 10 of 10
survivor count (dose: 400.0 mg/kg/injection, vehicle: saline): 10 of 10

O=C(Nc1ccc([N+](=O)[O-])cc1)Nc1nncs1
T/C (dose: 100.0 mg/kg/injection, vehicle: distilled water + Tween-80, evaluated on day 45): 132 % of control
T/C (dose: 100.0 mg/kg/injection, vehicle: distilled water + Tween-80, evaluated on day 50): 128 % of control
T/C (dose: 200.0 mg/kg/injection, vehicle: distilled water + Tween-80): 133 % of control
survivor count (dose: 400.0 mg/kg/injection, vehicle: distilled water + Tween-80): 8 of 10 and 10 of 10

CCSc1ncnc2c1ncn2C1OC(CO)C(O)C1O (configuration not stated)
survivor count [3]: 10 of 10
survivor count [4]: 6 of 10

CNc1cccnc1/C=N/NC(N)=S
T/C (dose: 12.5 mg/kg/injection, vehicle: saline with Tween-80): 139 % of control
T/C (dose: 25.0 mg/kg/injection, vehicle: saline with Tween-80): 144 and 146 % of control
T/C [5]: 149 % of control
survivor count [6]: 10 of 10
survivor count [3]: 8 of 10 and 9 of 10
survivor count [4]: 8 of 10

O=C1C=C[C@H](O)[C@@]2(CO)O[C@@H]12
survivor count (dose: 10.0 mg/kg/injection, vehicle: saline with Tween-80): 10 of 10
survivor count (dose: 20.0 mg/kg/injection, vehicle: saline with Tween-80): 6 of 10
survivor count (dose: 40.0 mg/kg/injection, vehicle: saline with Tween-80): 1 of 9

C(COCCOCC1CO1)OCCOCC1CO1 (configuration not stated)
T/C [1]: 130 % of control

C/C=C(\C)C(=O)N[C@@H](c1ccccc1)[C@@H](O)C(=O)OC1C[C@@]2(O)[C@@H](OC(=O)c3ccccc3)[C@@H]3[C@]4(OC(C)=O)CO[C@@H]4C[C@H](O)[C@@]3(C)C(=O)[C@H](OC(C)=O)C(=C1C)C2(C)C (some centres not stated)
T/C (dose: 2.0 mg/kg/injection, vehicle: saline + Tween-80 + alcohol): 125 % of control
T/C (dose: 8.0 mg/kg/injection, vehicle: saline + Tween-80 + alcohol): 145 % of control

CC(=O)Nc1ccc(Nc2ccc(C(=C3C=CC(=[N+](C)CCC#N)C=C3)c3ccc(N(C)CCC#N)cc3)cc2)cc1
survivor count [5]: 0 of 10
survivor count [6]: 0 of 10
survivor count [3]: 0 of 10
survivor count [4]: 0 of 10

CCCCCC(O)C1C(=O)OC(C)C(O)/C=C/C=C/C=C/C=C/C=C(\C)C(O)C(O)C(O)CC(O)CC(O)CC(O)CC(O)CC1O (configuration not stated)
T/C (dose: 2.0 mg/kg/injection, vehicle: other): 136 % of control
survivor count (dose: 6.25 mg/kg/injection, vehicle: saline): 9 of 9

NC(=O)Oc1cc(OC(N)=O)cc(N(CCCl)CCCl)c1
T/C (dose: 12.5 mg/kg/injection, vehicle: Klucel (hydroxypropylcellulose) (HPC)): 145 % of control

CN(C)N=Nc1cccc(C(N)=O)c1
survivor count [2]: 2 of 6

O=C(Nc1ccccc1)c1c(O)[nH]c(=O)[nH]c1=O
T/C [6]: 125 [8 of 10 alive] and 130 % of control
T/C [3]: 139 and 140 % of control [9 of 10 alive]
survivor count [4]: 9 of 10

CC(C)CCC(=O)c1ccoc1
survivor count (dose: 4.0 mg/kg/injection, vehicle: saline with Tween-80): 6 of 10

Nc1nc(SCc2ccccc2Cl)c2ncn(C3OC(CO)C(O)C3O)c2n1 (configuration not stated)
survivor count [5]: 10 of 10

Source: PubChem BioAssay AID200 (DTP/NCI, 2004)
